In the supplement of paper PMC9578143, “Small-Molecule Ebselen Binds to YTHDF Proteins Interfering with the Recognition of N^6-Methyladenosine-Modified RNAs” (ACS Pharmacology & Translational Science, 2022):
The list shows a part of the results. Plates or batches differ in their baseline, so values are only roughly comparable.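 Hits were defined as a z-score below −3.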

These compounds were tested against T1, YTHDF1 YTH domain (aa 365-554) (UniProt Q9BYJ9) (assay: tryptophan fluorescence intensity z-score (mean); higher = higher fluorescence, less quenching (negative = binding / quenching)). Settings: 10 µM.
T1 sequence (whole entry): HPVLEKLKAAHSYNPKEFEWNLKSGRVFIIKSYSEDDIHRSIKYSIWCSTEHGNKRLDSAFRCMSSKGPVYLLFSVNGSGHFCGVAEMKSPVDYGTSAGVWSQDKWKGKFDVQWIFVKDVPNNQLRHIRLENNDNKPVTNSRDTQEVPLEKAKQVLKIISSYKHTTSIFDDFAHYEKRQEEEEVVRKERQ
In the case of COc1cc(O)ccc1C(C)=O (plate: M 17-18), the “tryptophan fluorescence intensity z-score” value is reported as inactive: 0.258. For CC(=O)OCC(=O)[C@H]1CC[C@H]2[C@@H]3CCC4=CC(=O)CC[C@]4(C)[C@H]3CC[C@]12C (plate: M 1-2), the “tryptophan fluorescence intensity z-score” value was inactive: 0.403. O=C(/C=C/c1ccc(O)c(O)c1)O[C@@H]1C[C@](O)(C(=O)O)C[C@@H](O)[C@H]1O (plate: M 15-16) was tested, and the “tryptophan fluorescence intensity z-score” value was inactive: 0.059. In the case of C=CCOC(Cn1ccnc1)c1ccc(Cl)cc1Cl (stereo not drawn) (plate: M 13-14), the “tryptophan fluorescence intensity z-score” value is reported as inactive: 0.555. In the case of COc1ccc(-c2cc(=O)c3c(OC(C)=O)cc(OC(C)=O)cc3o2)cc1 (plate: M 21-22), the “tryptophan fluorescence intensity z-score” value is reported as inactive: 0.187. For Cc1cc(-c2ccccc2)nnc1NCCN1CCOCC1 (plate: M 13-14), the “tryptophan fluorescence intensity z-score” value was inactive: 0.98. With NC(N)=Nc1nc(CSCC/C(N)=N/S(N)(=O)=O)cs1 (plate: M 7-8) the “tryptophan fluorescence intensity z-score” value was inactive: 0.0393. CC1=C(/C=C/C(C)=C/C=C/C(C)=C\C(=O)O)C(C)(C)CCC1 (plate: M 13-14) was tested, and the “tryptophan fluorescence intensity z-score” value was inactive: 0.375. With CC/C(=C(/CC)c1ccc(O)cc1)c1ccc(O)cc1 (plate: M 1-2) the “tryptophan fluorescence intensity z-score” value was inactive: 1.38. For CSc1ccc2c(c1)N(CCC1CCCCN1C)c1ccccc1S2 (stereo not drawn) (plate: M 5-6), the “tryptophan fluorescence intensity z-score” value was inactive: -0.508. For CN(C)[C@@H]1C(O)=C(C(N)=O)C(=O)[C@@]2(O)C(O)=C3C(=O)c4c(O)cccc4[C@@](C)(O)[C@H]3[C@H](O)[C@@H]12 (plate: M 3-4), the “tryptophan fluorescence intensity z-score” value was inactive: 0.0143. With CC(=O)NCCc1ccc(O)c(-c2c(O)c(O)c3c(c2O)C(=O)c2c(cc(O)c(C(=O)O)c2C(=O)O)C3=O)c1 (plate: M 21-22) the “tryptophan fluorescence intensity z-score” value was inactive: -0.32. With COC1(C)CCC2OC2(C)CCC2C1CC2(C)C (stereo not drawn) (plate: M 21-22) the “tryptophan fluorescence intensity z-score” value was inactive: 0.261. For CCCCC1(COC(=O)CCC(=O)O)C(=O)N(c2ccccc2)N(c2ccccc2)C1=O (plate: M 23-24), the “tryptophan fluorescence intensity z-score” value was inactive: 0.51. For COc1cc(NC(C)CCCN)c2ncccc2c1 (stereo not drawn) (plate: M 5-6), the “tryptophan fluorescence intensity z-score” value was inactive: -0.263. With COC(=O)[C@@H]1OC(=O)[C@H]2O[C@@]23[C@@]1(C)CCC1[C@@]2(C)CCC(=O)C(C)(C)C2C[C@@H](OC(C)=O)[C@]13C (stereo partly drawn) (plate: M 15-16) the “tryptophan fluorescence intensity z-score” value was inactive: 0.472. C[C@H]1[C@H](C)CC[C@]2(C(=O)O)CC[C@]3(C)C(=CC[C@@H]4[C@@]5(C)C[C@@H](O)[C@H](O)[C@@](C)(CO)[C@@H]5CC[C@]43C)[C@H]12 (plate: M 19-20) was tested, and the “tryptophan fluorescence intensity z-score” value was inactive: 0.2. With CCN(CC)CCOC(=O)C(c1ccccc1)c1ccccc1 (plate: M 7-8) the “tryptophan fluorescence intensity z-score” value was inactive: 0.178. For CC(C)(C)CC(C)(C)c1ccc(O)c(Cc2ccc(Cl)cc2Cl)c1 (plate: M 21-22), the “tryptophan fluorescence intensity z-score” value was inactive: 0.72. For COc1cccc(OC)c1C(=O)N[C@@H]1C(=O)N2[C@@H]1SC(C)(C)[C@@H]2C(=O)O (plate: M 3-4), the “tryptophan fluorescence intensity z-score” value was inactive: -0.0253. For Cc1ccc(S(=O)(=O)NC(=O)NN2CCCCCC2)cc1 (plate: M 7-8), the “tryptophan fluorescence intensity z-score” value was inactive: 0.237. CC(C)CCCC(C)C1CCC2C3=CCC4CC(O)CCC4(C)C3CCC21C (stereo not drawn) (plate: M 17-18) was tested, and the “tryptophan fluorescence intensity z-score” value was inactive: 0.258. For C[C@]12CC[C@@H]3c4ccc(OS(=O)(=O)O)cc4CC[C@H]3[C@@H]1CCC2=O (plate: M 9-10), the “tryptophan fluorescence intensity z-score” value was inactive: 0.162. Cc1ccsc1/C=C/C1=NCCCN1C (plate: M 9-10) was tested, and the “tryptophan fluorescence intensity z-score” value was inactive: -0.54. For CN(C)c1ccc(O)c2c1C[C@H]1C[C@H]3[C@H](N(C)C)C(O)=C(C(N)=O)C(=O)[C@@]3(O)C(O)=C1C2=O (plate: M 3-4), the “tryptophan fluorescence intensity z-score” value was inactive: -0.515. CCOc1ccc2nc3cc(N)ccc3c(N)c2c1 (plate: M 23-24) was tested, and the “tryptophan fluorescence intensity z-score” value was inactive: 0.0327. With CCN(CC)CCNc1ccc(CO)c2sc3ccccc3c(=O)c12 (plate: M 7-8) the “tryptophan fluorescence intensity z-score” value was inactive: 0.0955. O=C(COc1ccc(Cl)cc1)N1CCN(Cc2ccc3c(c2)OCO3)CC1 (plate: M 23-24) was tested, and the “tryptophan fluorescence intensity z-score” value was inactive: 0.521. In the case of O=c1c(O)cc([C@H]2Oc3cc(O)cc(O)c3C[C@H]2O)cc2c([C@H]3Oc4cc(O)cc(O)c4C[C@H]3O)cc(O)c(O)c12 (plate: M 15-16), the “tryptophan fluorescence intensity z-score” value is reported as inactive: 0.247. COc1cc(OC)c2c(=O)c(-c3ccc4c(c3)OCO4)coc2c1 (plate: M 17-18) was tested, and the “tryptophan fluorescence intensity z-score” value was inactive: 0.356. With COc1cc([C@@H]2c3cc4c(cc3[C@@H](O[C@@H]3O[C@@H]5CO[C@@H](c6cccs6)O[C@H]5[C@H](O)[C@H]3O)[C@H]3COC(=O)[C@H]23)OCO4)cc(OC)c1O (plate: M 9-10) the “tryptophan fluorescence intensity z-score” value was inactive: 0.0712. For O=c1[nH]cnc2c1ncn2[C@@H]1O[C@H](CO)[C@@H](O)[C@H]1O (plate: M 21-22), the “tryptophan fluorescence intensity z-score” value was inactive: 0.246. With CC(C)Cn1c(=O)n(C)c(=O)c2[nH]cnc21 (plate: M 23-24) the “tryptophan fluorescence intensity z-score” value was inactive: 0.453. CCCCOc1cc(CC2CNC(=O)N2)ccc1OC (stereo not drawn) (plate: M 23-24) was tested, and the “tryptophan fluorescence intensity z-score” value was inactive: 0.394. CCOC(=O)c1c(C)cc(O)cc1O (plate: M 15-16) was tested, and the “tryptophan fluorescence intensity z-score” value was inactive: -0.00647. For CN(C)CCCN1c2ccccc2Sc2ccc(Cl)cc21 (plate: M 1-2), the “tryptophan fluorescence intensity z-score” value was inactive: -0.465. O=c1ccc2ccccc2o1 (plate: M 1-2) was tested, and the “tryptophan fluorescence intensity z-score” value was inactive: 0.262. In the case of NCCOB(c1ccccc1)c1ccccc1 (plate: M 23-24), the “tryptophan fluorescence intensity z-score” value is reported as inactive: 0.268. For CC1(C)C=Cc2cc3ccc(=O)oc3cc2O1 (plate: M 15-16), the “tryptophan fluorescence intensity z-score” value was inactive: -0.0407. In the case of Nc1ccn([C@@H]2O[C@H](CO)[C@@H](O)[C@@H]2O)c(=O)n1 (plate: M 1-2), the “tryptophan fluorescence intensity z-score” value is reported as inactive: -0.314. For O=C(O)[C@H](O)[C@@](O)(Cc1ccc(O)cc1)C(=O)O (plate: M 15-16), the “tryptophan fluorescence intensity z-score” value was inactive: 0.684. With COc1ccnc(C[S+]([O-])c2nc3cc(OC(F)F)ccc3[nH]2)c1OC (stereo not drawn) (plate: M 11-12) the “tryptophan fluorescence intensity z-score” value was inactive: -0.184. With CO[C@H]1C[C@H](O[C@H]2[C@H](C)[C@@H](O[C@@H]3O[C@H](C)C[C@H](N(C)C)[C@H]3O)[C@@H](C)C[C@@]3(CO3)C(=O)[C@H](C)[C@@H](O)[C@@H](C)[C@@H](C)OC(=O)[C@@H]2C)O[C@@H](C)[C@@H]1O (plate: M 5-6) the “tryptophan fluorescence intensity z-score” value was inactive: -0.596. In the case of Nc1ccc(S(=O)(=O)Nc2ccccn2)cc1 (plate: M 5-6), the “tryptophan fluorescence intensity z-score” value is reported as inactive: 0.0508. In the case of CC(=O)N[C@@H](C=O)[C@@H](O)[C@H](O)[C@H](O)CO (plate: M 23-24), the “tryptophan fluorescence intensity z-score” value is reported as inactive: 0.608. With CC(=O)c1c(O)cc(O)cc1O (plate: M 17-18) the “tryptophan fluorescence intensity z-score” value was inactive: -0.384. In the case of CC(=O)O[C@@H]1CC2C(C)(CC[C@H](O)C2(C)C)C2CC[C@]3(C)C(=CC(=O)O[C@H]3c3ccoc3)C21C (stereo partly drawn) [3beta-HYDROXYDEOXODIHYDRODEOXYGEDUNIN] (plate: M 15-16), the “tryptophan fluorescence intensity z-score” value is reported as inactive: 0.103. With CC1(C)[C@@H](O)CC[C@]2(C)[C@H]3C(=O)C=C4[C@H]5C[C@@](C)(C(=O)O)CC[C@]5(C)CC[C@@]4(C)[C@]3(C)CC[C@@H]12 [18alpha-GLYCYRRHETINICACID] (plate: M 17-18) the “tryptophan fluorescence intensity z-score” value was inactive: 0.646. In the case of CCCCN1CCCCC1C(=O)Nc1c(C)cccc1C (stereo not drawn) (plate: M 9-10), the “tryptophan fluorescence intensity z-score” value is reported as inactive: -0.242. In the case of CCOC(=O)NNc1nncc2ccccc12 (plate: M 21-22), the “tryptophan fluorescence intensity z-score” value is reported as inactive: 0.342. In the case of CC(C)(C)c1ccc(C(O)CCCN2CCC(C(O)(c3ccccc3)c3ccccc3)CC2)cc1 (stereo not drawn) (plate: M 9-10), the “tryptophan fluorescence intensity z-score” value is reported as inactive: -0.645. With Cc1cc(=O)oc2c(O)c(O)ccc12 (plate: M 17-18) the “tryptophan fluorescence intensity z-score” value was inactive: -0.651. For CC(COc1ccccc1)NC(C)C(O)c1ccc(O)cc1 (stereo not drawn) (plate: M 3-4), the “tryptophan fluorescence intensity z-score” value was inactive: -0.135. In the case of CC12CCCC(O)(C1)C1CC(C)(C)C1CC2 (stereo not drawn) [beta-CARYOPHYLLENEALCOHOL] (plate: M 17-18), the “tryptophan fluorescence intensity z-score” value is reported as inactive: 0.477. In the case of CC(=O)[C@H]1CC[C@H]2[C@@H]3CC=C4C[C@@H](O)CC[C@]4(C)[C@H]3CC[C@]12C (plate: M 23-24), the “tryptophan fluorescence intensity z-score” value is reported as inactive: 0.0957. For CN(C)c1ccc(C(=C2C=CC(=[N+](C)C)C=C2)c2ccc(N(C)C)cc2)cc1 (plate: M 3-4), the “tryptophan fluorescence intensity z-score” value was inactive: -1.62. In the case of O=c1ccn([C@@H]2O[C@H](COP(=O)(O)OP(=O)(O)OP(=O)(O)O)[C@@H](O)[C@H]2O)c(=O)[nH]1 (plate: M 21-22), the “tryptophan fluorescence intensity z-score” value is reported as inactive: 0.171. In the case of CON (plate: M 23-24), the “tryptophan fluorescence intensity z-score” value is reported as inactive: 0.741. For CCN(CCO)CCCC(C)Nc1ccnc2cc(Cl)ccc12 (stereo not drawn) (plate: M 9-10), the “tryptophan fluorescence intensity z-score” value was inactive: -0.281. For O=C(O)c1ccccc1 (plate: M 7-8), the “tryptophan fluorescence intensity z-score” value was inactive: 0.242. O=C(O)c1cccnc1C(=O)O (plate: M 21-22) was tested, and the “tryptophan fluorescence intensity z-score” value was inactive: -0.164. In the case of CCOc1ccc(NC(C)=O)cc1 (plate: M 5-6), the “tryptophan fluorescence intensity z-score” value is reported as inactive: 0.172. For CN1CCC[C@@H]1CCO[C@](C)(c1ccccc1)c1ccc(Cl)cc1 (plate: M 1-2), the “tryptophan fluorescence intensity z-score” value was inactive: 0.107. For CC(C)(C)NCC(O)c1cc(O)cc(O)c1 (stereo not drawn) (plate: M 5-6), the “tryptophan fluorescence intensity z-score” value was inactive: -0.0435. For COc1ccc2c(c1)O[C@@H]1COc3cc(OC)c(OC)cc3[C@@H]1C2=O (plate: M 15-16), the “tryptophan fluorescence intensity z-score” value was inactive: 0.0832. CCOC(=O)[N-]c1c[n+](N2CCOCC2)no1 (plate: M 5-6) was tested, and the “tryptophan fluorescence intensity z-score” value was inactive: -0.338. With CC[N+](CC)(CC)CCOc1cccc(OCC[N+](CC)(CC)CC)c1OCC[N+](CC)(CC)CC (plate: M 3-4) the “tryptophan fluorescence intensity z-score” value was inactive: -0.352. For C#C[C@]1(O)CC[C@H]2[C@@H]3CCC4=C(CCC(=O)C4)[C@H]3CC[C@@]21C (plate: M 3-4), the “tryptophan fluorescence intensity z-score” value was inactive: 0.201.
